This list was built around the results that the source calls inconclusive (neither active nor inactive); the mix of calls is not that of the screen. A potency beside an inconclusive call is a rough fit, not a confirmed value. Calls of active or inactive are those of the source. Calls come from the whole dose curve; as a rule, active = well fitted inhibition curve with a large enough effect; inconclusive = small, poorly fitted or top-dose-only effect, or another doubt; inactive = no such curve, though single readings can be large or run the other way.
These compounds were tested against DNA polymerase iota (Homo sapiens) (UniProt Q9UNA4) (assay: qHTS for Inhibitors of Polymerase Iota: Confirmatory Assay for Cherry-picked Compounds (AID 720496)). Conditions: Pol iota primer extension, TAMRA/BHQ fluorescence.
How it was run: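 Enzyme (10 nM Pol iota) and compound sit together for 15 min at room temperature. Adding annealed primer/TAMRA-reporter/BHQ-2-template substrate, 50 nM final, starts the reaction, which is followed by fluorescence over 10 min.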
Potency is the fitted concentration of half-maximal effect.

The chains behind the UniProt entries cited, without tags or fusion partners. Where a name states a change or a piece, a line headed by the entry shows the natural chain unless it says otherwise.
UniProt Q9UNA4: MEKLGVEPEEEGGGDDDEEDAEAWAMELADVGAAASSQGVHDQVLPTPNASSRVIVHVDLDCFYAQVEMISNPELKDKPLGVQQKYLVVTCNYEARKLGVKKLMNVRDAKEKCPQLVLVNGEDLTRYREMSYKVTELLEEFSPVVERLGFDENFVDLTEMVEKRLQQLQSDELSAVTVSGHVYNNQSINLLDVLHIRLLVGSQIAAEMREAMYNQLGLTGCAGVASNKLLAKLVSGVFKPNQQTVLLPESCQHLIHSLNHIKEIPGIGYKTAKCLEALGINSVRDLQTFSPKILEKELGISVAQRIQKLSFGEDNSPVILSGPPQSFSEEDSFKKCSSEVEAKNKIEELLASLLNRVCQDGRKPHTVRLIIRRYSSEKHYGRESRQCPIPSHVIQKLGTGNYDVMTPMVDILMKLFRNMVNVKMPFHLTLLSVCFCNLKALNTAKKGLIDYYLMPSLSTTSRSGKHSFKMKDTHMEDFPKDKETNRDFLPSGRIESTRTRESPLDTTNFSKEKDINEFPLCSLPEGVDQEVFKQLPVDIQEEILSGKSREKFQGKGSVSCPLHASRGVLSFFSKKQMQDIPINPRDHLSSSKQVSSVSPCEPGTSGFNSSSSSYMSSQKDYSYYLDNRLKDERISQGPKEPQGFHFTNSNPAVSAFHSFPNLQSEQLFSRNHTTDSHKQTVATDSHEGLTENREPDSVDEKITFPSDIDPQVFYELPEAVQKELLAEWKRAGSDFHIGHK

Row | SMILES | Potency
1 | Cc1cc(C)c2cc3c(N)c(C(=O)Nc4c(C)[nH]c(=O)[nH]c4=O)sc3nc2c1 | inconclusive: 75.2 µM [inhibitor, partial curve]
2 | Cc1cc(=O)[nH]c(N/N=C/c2ccc(OC(=O)c3ccco3)cc2)n1 | inconclusive: 37.7 µM [inhibitor, partial curve]
3 | O=C(NNC(=O)c1ccccc1Br)c1ccc2nc[nH]c2c1 | inconclusive: 75.2 µM [inhibitor, partial curve]
4 | O=C(/C=C/c1ccc([N+](=O)[O-])cc1)Oc1ccc(/C=N/NC(=O)c2ccncc2)cc1 | inconclusive: 29.9 µM [inhibitor, partial curve]
5 | Cc1ccc(NC(=O)CS(=O)CC(=O)Nc2ccc(N3CCOCC3)cc2)cc1Cl (stereo not given) | inconclusive: 75.2 µM [inhibitor, partial curve]
6 | COc1ccccc1C(CCN(Cc1cccs1)C(C)=O)c1ccco1 (stereo not given) | inconclusive: 75.2 µM [inhibitor, partial curve]
7 | O=C(COC(=O)c1ccc(Br)o1)Nc1ncc([N+](=O)[O-])s1 | inconclusive: 67 µM [inhibitor, partial curve]
8 | Cc1oc(-c2ccc(F)cc2)cc1-c1nn2c(-c3ccoc3C)nnc2s1 | inconclusive: 67 µM [inhibitor, partial curve]
9 | C=CCc1cccc2cc(C(=O)Nc3ccc(S(=O)(=O)Nc4nnc(CC)s4)cc3)c(=O)oc12 | inconclusive: 75.2 µM [inhibitor, single point]
10 | Cc1cccc(NC(=O)CNC(=O)c2cccc(-n3cccc3)c2)c1C | active: 9.47 µM
11 | COc1ccc(-c2nn(C)c3sc(C(=O)NCCN(C)C)cc23)cc1OC | inconclusive: 33.6 µM [inhibitor, partial curve]
12 | N#CC1=C(N)N2C(=C(C#N)C1c1ccc(Br)cc1)Nc1ccccc12 (stereo not given) | inconclusive: 59.7 µM [inhibitor, partial curve]
13 | O=C(/C=C/c1ccccc1Cl)Nc1ccc2c(c1)C(=O)NC2=O | inconclusive: 67 µM [inhibitor, partial curve]
14 | CC(=O)Nc1sc2c(c1-c1nc3ccccc3s1)CCCNC2 | inconclusive: 75.2 µM [inhibitor, partial curve]
15 | COc1cc2cc(Oc3ccc4ccc(=O)oc4c3)c(=O)oc2cc1OC1OC(COC(=O)CC(C)(O)CC(=O)O)C(O)C(O)C1O (stereo not given) | active: 67 µM
16 | CC1=NN(c2cccc(C(=O)O)c2)C(=O)/C1=C\C=C\c1ccco1 | active: 2.38 µM
17 | Cc1ccc(-c2cc(C(=O)Nc3ccc(S(=O)(=O)N4CC(C)OC(C)C4)cc3)[nH]n2)c(O)c1 (stereo not given) | active: 75.2 µM
18 | COc1ccc(CCNC(=O)c2nnn(CC(=O)Nc3ccc(C)cc3C)c2N)cc1OC | inconclusive: 42.3 µM [inhibitor, partial curve]
19 | COc1cccc(C(=O)Nc2ccc3c(c2)C(=O)c2ccccc2C3=O)c1 | inconclusive: 42.3 µM [inhibitor, partial curve]
20 | O=C(Nc1nc(-c2cc3ccccc3oc2=O)cs1)c1ccco1 | inconclusive: 67 µM [inhibitor, partial curve]

Among those listed so far, 2 contain a COOH group:
Row | SMILES | Potency
15 | COc1cc2cc(Oc3ccc4ccc(=O)oc4c3)c(=O)oc2cc1OC1OC(COC(=O)CC(C)(O)CC(=O)O)C(O)C(O)C1O (stereo not given) | active: 67 µM
16 | CC1=NN(c2cccc(C(=O)O)c2)C(=O)/C1=C\C=C\c1ccco1 | active: 2.38 µM

Carrying on.

Row | SMILES | Potency
21 | CC1(C)C=C2C(=NN(c3ccccc3)C(N)=C2C#N)CO1 | inconclusive: 84.4 µM [inhibitor, single point]
22 | CCN(CC)S(=O)(=O)c1cccc(C(=O)N/N=C/c2ccc(O)c(O)c2O)c1 | inconclusive: 75.2 µM [inhibitor, partial curve]
23 | O=C(Nc1ccc(Cc2ccc(NC(=O)Nc3cccnc3)cc2)cc1)Nc1cccnc1 | inconclusive: 47.4 µM [inhibitor, partial curve]
24 | N=C1C(c2nc(-c3cccc([N+](=O)[O-])c3)cs2)=C(O)CN1NC(=O)c1ccco1 | inconclusive: 59.7 µM [inhibitor, partial curve]
25 | COc1ccc(CNC(=O)COC(=O)c2ccc(S(=O)(=O)NCc3ccco3)cc2)cc1 | inconclusive: 75.2 µM [inhibitor, partial curve]
26 | CCN(CC)CCC(=O)Nc1cccc2c1C(=O)c1ccccc1C2=O | inconclusive: 67 µM [inhibitor, partial curve]
27 | O=c1cc(Br)c(O)c(Br)cc1Br | inconclusive: 75.2 µM [inhibitor, partial curve]
28 | Cc1cc(C)c2nc(C)cc(N/N=C/c3ccc(O)cc3)c2c1 | inconclusive: 59.7 µM [inhibitor, partial curve, poor fit]
29 | CN1N/C(=C\c2ccccc2)N=C2C(=O)N(C)C(=O)N=C21 | active: 2.67 µM
30 | CC(C)c1ccc(N2C(=O)/C(=C/N(C)C)SC2=S)cc1 | active: 4.23 µM
31 | COc1ccc(S(=O)(=O)N2CCOCC2)cc1NC(=O)c1cccc(-n2cccc2)c1 | inconclusive: 37.7 µM [inhibitor, partial curve]
32 | COc1ccccc1NCCC(=O)OCC(=O)NCc1ccco1 | inconclusive: 67 µM [inhibitor, partial curve]
33 | CC(C)CCNC(=O)c1ccc(Cn2c(=S)[nH]c3ccccc3c2=O)cc1 | inconclusive: 42.3 µM [inhibitor, partial curve]
34 | O=C(OCc1cc(=O)n2nc(-c3cccs3)sc2n1)c1ccc(F)cc1 | inconclusive: 75.2 µM [inhibitor, partial curve]
35 | CCOC(=O)C1=C(C)N=c2s/c(=C/c3ccc(OCC(=O)O)cc3)c(=O)n2C1c1ccc(OC)cc1OC (stereo not given) | active: 33.6 µM
36 | O=C(COC(=O)Cc1ccc(Cl)cc1)NCc1ccco1 | active: 18.9 µM
37 | COc1ccccc1NC(=O)c1cnc(SCC(=O)NCC2CCCO2)n(C)c1=O (stereo not given) | inconclusive: 42.3 µM [inhibitor, full curve]
38 | CC(=O)Nc1ccc(S(=O)(=O)N(C)CC(=O)OCC(=O)N2CCN(C(=O)c3ccco3)CC2)cc1 | inconclusive: 75.2 µM [inhibitor, partial curve]
39 | CN(C)c1ccc(N=Nc2ccc(C(=O)O)cc2)cc1 | active: 21.2 µM
40 | O=C(CNC(=O)c1ccc(S(=O)(=O)N2CCCCC2)cc1)N/N=C/c1ccco1 | active: 11.9 µM
